Reference: paper PMC7720772
Results are given in words; binding and its absence hold for the method and conditions named. Binding seen in cells or lysates may run through a third protein. Some binding calls cover weakened binding; strength is not graded here.

By UniProt entry, the sequences of proteins in these tests, tags left out.
UniProt Q96SB4: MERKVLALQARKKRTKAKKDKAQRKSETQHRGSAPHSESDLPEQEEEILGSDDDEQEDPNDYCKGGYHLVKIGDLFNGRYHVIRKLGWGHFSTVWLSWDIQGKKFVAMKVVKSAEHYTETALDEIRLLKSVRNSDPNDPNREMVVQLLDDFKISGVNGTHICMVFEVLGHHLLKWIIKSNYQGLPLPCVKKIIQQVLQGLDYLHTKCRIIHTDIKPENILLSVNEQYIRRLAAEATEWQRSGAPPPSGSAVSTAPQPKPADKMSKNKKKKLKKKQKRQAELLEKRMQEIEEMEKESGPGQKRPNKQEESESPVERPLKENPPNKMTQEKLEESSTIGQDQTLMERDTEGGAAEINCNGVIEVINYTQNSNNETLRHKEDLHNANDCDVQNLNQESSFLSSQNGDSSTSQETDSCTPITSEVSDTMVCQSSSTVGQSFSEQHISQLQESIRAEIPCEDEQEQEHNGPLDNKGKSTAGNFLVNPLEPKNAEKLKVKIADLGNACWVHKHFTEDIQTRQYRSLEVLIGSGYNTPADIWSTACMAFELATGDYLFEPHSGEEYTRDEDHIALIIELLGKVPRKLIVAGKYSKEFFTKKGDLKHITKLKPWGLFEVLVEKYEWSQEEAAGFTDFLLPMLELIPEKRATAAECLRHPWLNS
UniProt Q9H4A3: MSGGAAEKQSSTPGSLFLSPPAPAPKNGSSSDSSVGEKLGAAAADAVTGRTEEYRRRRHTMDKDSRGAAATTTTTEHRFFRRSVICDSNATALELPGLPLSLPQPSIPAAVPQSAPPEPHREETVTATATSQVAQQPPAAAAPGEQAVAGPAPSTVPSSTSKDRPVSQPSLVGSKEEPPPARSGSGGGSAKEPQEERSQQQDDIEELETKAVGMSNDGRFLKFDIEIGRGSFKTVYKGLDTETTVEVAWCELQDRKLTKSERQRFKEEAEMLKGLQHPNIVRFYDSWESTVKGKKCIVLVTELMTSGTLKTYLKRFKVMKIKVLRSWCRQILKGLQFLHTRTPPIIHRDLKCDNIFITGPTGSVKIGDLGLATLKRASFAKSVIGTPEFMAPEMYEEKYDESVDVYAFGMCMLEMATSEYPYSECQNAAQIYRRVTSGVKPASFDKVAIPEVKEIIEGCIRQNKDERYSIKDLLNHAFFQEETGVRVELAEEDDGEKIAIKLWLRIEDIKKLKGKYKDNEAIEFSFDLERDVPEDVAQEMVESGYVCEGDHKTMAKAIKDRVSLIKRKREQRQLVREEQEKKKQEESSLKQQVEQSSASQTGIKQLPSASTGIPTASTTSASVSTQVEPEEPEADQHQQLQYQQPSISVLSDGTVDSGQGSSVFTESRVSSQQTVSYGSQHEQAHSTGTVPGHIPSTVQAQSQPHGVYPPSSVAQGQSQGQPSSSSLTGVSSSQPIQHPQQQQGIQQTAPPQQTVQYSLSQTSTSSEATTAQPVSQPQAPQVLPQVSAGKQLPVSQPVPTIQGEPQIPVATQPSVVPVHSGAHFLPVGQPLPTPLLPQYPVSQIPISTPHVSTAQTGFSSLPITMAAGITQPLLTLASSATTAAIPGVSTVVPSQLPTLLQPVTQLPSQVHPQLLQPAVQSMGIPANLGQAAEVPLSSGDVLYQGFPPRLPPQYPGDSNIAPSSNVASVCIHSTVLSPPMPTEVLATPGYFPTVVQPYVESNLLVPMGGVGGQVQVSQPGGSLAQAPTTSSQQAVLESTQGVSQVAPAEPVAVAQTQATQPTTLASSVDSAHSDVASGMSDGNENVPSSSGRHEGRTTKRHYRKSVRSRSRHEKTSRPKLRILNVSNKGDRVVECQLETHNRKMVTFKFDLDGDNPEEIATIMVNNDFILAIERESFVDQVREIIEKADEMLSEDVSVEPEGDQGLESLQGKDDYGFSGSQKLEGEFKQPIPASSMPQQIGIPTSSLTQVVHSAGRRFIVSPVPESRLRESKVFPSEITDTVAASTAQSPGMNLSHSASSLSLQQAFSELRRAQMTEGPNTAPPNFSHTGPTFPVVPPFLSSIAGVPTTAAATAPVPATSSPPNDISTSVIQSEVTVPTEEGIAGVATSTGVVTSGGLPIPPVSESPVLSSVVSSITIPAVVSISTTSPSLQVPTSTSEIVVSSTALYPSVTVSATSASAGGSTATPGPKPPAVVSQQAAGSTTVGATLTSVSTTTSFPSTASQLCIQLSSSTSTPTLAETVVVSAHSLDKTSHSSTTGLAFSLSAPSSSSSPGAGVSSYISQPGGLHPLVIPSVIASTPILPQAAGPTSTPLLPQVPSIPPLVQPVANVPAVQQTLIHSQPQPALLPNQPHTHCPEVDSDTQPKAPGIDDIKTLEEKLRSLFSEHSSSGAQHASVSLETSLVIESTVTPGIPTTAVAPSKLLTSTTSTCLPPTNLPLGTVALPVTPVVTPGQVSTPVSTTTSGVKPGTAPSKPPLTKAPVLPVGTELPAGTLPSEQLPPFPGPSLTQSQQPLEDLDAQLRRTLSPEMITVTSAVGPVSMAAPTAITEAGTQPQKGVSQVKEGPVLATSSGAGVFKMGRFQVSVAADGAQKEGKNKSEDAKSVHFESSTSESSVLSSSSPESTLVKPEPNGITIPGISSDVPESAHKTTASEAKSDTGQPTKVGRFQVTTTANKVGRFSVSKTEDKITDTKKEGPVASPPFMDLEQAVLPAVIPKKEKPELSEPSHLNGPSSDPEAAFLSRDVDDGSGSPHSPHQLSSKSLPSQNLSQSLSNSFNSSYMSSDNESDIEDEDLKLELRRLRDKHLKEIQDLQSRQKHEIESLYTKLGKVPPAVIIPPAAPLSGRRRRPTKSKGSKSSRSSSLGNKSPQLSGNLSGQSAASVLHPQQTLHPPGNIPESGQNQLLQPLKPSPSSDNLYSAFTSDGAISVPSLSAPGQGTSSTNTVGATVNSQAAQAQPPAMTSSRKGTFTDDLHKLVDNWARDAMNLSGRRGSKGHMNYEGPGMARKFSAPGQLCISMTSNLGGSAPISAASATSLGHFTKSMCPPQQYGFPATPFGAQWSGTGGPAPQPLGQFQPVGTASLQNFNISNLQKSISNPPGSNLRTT
UniProt P49841: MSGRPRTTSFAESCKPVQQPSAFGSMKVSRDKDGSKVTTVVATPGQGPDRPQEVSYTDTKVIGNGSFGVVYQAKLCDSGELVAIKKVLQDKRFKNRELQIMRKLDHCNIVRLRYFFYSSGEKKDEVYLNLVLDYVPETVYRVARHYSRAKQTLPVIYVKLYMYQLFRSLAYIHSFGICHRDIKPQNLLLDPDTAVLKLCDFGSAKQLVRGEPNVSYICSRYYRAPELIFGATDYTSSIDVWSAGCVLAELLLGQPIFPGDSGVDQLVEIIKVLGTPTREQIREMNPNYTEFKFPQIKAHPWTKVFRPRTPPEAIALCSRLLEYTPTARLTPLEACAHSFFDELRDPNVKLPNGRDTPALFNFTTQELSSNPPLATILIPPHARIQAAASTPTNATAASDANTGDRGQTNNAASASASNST

Columns and labels:
[1] = biological target: SRPK1 (human (endogenous in HT29)) (UniProt Q96SB4); test: co-IP; HT29 cells treated 48 h with DMSO or 500 μM ibuprofen, crosslinked with DSP and SPDP, lysed in 1% NP40 buffer; endogenous SRPK1 precipitated with anti-SRPK1 crosslinked to protein G agarose beads, overnight at 4°C; de-crosslinked with 100 mM DTT; Western blot
[2] = biological target: WNK1 (human (endogenous in HT29)) (UniProt Q9H4A3); test: co-IP; HT29 cells crosslinked with DSP and SPDP for 2 h, lysed in 1% NP40 buffer; endogenous WNK1 precipitated with anti-WNK1 crosslinked to protein G agarose beads, overnight at 4°C; de-crosslinked with 100 mM DTT; Western blot; cells untreated or treated 48 h with DMSO or 500 μM ibuprofen (less GSK3β and SRPK1 co-precipitated with ibuprofen)

Row | binding [1] | binding [2] | Substance
1 | binds | binds | GSK3β (from UniProt P49841 1-420) (enzyme)
2 |  | binds | SRPK1 (from UniProt Q96SB4 1-655) (enzyme)
3 | binds |  | WNK1 (from UniProt Q9H4A3 1-2382) (enzyme)
